# Small-molecule microarray binding calls

Calls as published in the ROBIN set (doi:10.1002/anie.202211358).

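Compounds were printed on reactive glass slides in duplicate spots, a dye-labelled oligonucleotide was laid over them, and the fluorescence left after washing was read. The data file lists only calls. An earlier report of the laboratory on the PreQ1, TPP and SAM-II riboswitches (doi:10.1038/s41467-019-09493-3) used 1 µM RNA for 2 h and required a mean Z-score above 3 (spot signal-to-noise against the whole library), a score well above that on a control array, and duplicate spots agreeing (coefficient of variation under 100); it then also set aside compounds that hit other targets, which this list keeps. The cut-offs behind this list may differ. These are primary screening calls, not affinities; a compound without a hit may have attached poorly or may still bind in solution.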
“hit” means called a hit, “none” means screened and not called a hit.
The compounds are a random part of those screened.
A dash means that no call is listed here.

Targets (5′ to 3′):
T1: TPP riboswitch RNA three-way junction, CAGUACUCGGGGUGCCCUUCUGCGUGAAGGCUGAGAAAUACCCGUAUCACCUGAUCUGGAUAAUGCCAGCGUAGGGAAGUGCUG. Hit rate about 0.7% of about 24,000 compounds.
T2: SAM-II riboswitch RNA pseudoknot, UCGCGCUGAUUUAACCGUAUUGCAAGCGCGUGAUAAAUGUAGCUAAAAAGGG. Hit rate about 1% of about 21,000 compounds.
T3: PreQ1 riboswitch RNA pseudoknot, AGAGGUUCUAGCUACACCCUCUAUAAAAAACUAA. From B. subtilis. Hit rate about 0.7% of about 24,000 compounds.

| SMILES | T1 | T2 | T3 |
|---|---|---|---|
| `Cc1ccc(NC(=O)Cn2nnc(C(=O)Nc3ccc(F)c(Cl)c3)c2N)c(C)c1` | none | none | none |
| `CC(C)CCn1c(CNC(=O)C2CC3(CCNCC3)CN2)nc2cccnc21` (stereo not drawn) | none | none | none |
| `Cc1c(NC(=S)NCCO)c(=O)n(-c2ccccc2)n1C` | none | none | none |
| `Cc1ccc(CNCCc2c[nH]c3ccccc23)cc1` | none | none | none |
| `O=C(C1CC=CC1)N1CCN(C2Cc3ccccc3C2)CC(O)C1` (stereo not drawn) | none | none | none |
| `CCOc1ccccc1Nc1ncnc2c1nc1n2CCCCC1` | none | - | none |
| `CS(=O)(=O)NCC(=O)N1CC[C@@H]2[C@@H](CCC(=O)N2CCCO)C1` | none | none | none |
| `Cc1ccc(/C=C2\CCOC2=O)cc1` | none | none | none |
| `CS(=O)(=O)Nc1cccc(-n2ccnc2-c2cc(C#CCO)cs2)c1` | none | none | none |
| `CCOc1cc(C2Nc3ccccc3C(=O)N2Cc2ccco2)ccc1OCc1ccccc1Cl` (stereo not drawn) | none | none | none |
| `OCC(Cc1ccsc1)Cn1ccnc1-c1ccncc1` (stereo not drawn) | none | none | none |
| `O=C(CN1CC2(CCNCC2)OC1=O)N1CCCN(c2ccccc2)CC1` | none | none | none |
| `CCc1ccccc1NC(=O)CCNC[C@]1(O)CCCN2CCCC[C@@H]21` | none | none | none |
| `O=S(=O)(NCC(Nc1ccc(Br)cc1)c1ccccc1)c1ccc(Cl)cc1` (stereo not drawn) | none | - | none |
| `COc1ccc(-c2nc(C(=O)NCCO)nn2-c2ccccc2Cl)cc1` | none | - | none |
| `Nc1n[nH]c2nc(-c3ccccc3)c3c(c12)CCC3` | none | none | none |
| `COC(=O)CNC(c1ccccc1)c1cc(C)ccc1NC(=O)c1ccccc1` (stereo not drawn) | none | none | none |
| `CC1CC2(CC(C)(c3csc(Nc4ccccc4Cl)n3)OC2=O)C(=O)O1` (stereo not drawn) | none | none | none |
| `COc1cccc(C(C)N(C)Cc2ccc(CO)o2)c1` (stereo not drawn) | none | none | none |
| `COC(=O)c1n[nH]cc1-c1c(C#N)c(N)nc2c1CCc1cc(O)ccc1-2` | none | none | none |
| `CC(C)c1ccc(CNc2ncc(-c3ccc(F)cc3)n2C)cc1` | none | none | none |
| `O=C(c1ccc(-n2cnnc2)cc1)N1CC[C@H]2CNC[C@H]21` | none | none | none |
| `CC[C@@]1(O)CCN(C(=O)CCn2nc(C)c(C(C)=O)c2C)C[C@H]1O` | none | none | none |
| `Cn1cc(-c2ccc3c(c2)CCN3C(=O)Cc2cccc(C(F)(F)F)c2)c2c(N)ncnc21` | none | none | none |
| `CC1CC(Nc2ccccc2)c2ccccc2N1C(=O)CN1C(=O)C2CCCCC2C1=O` (stereo not drawn) | none | none | none |
| `Cc1nnc(CCNCc2cc(O)c3cccc(Cl)c3n2)s1` | none | none | none |
| `Brc1ccc2nc(-c3ccco3)c(Nc3ccccc3)n2c1` | none | none | none |
| `CN(C)[C@H]1CCN(c2nc(-c3ccc(C(N)=O)cc3)nc3c2CCNC3)C1` | none | none | none |
| `CCN1CCCCC(=N\O)/C(=N/O)CCCC1` | hit | hit | hit |
| `CC(CCn1cccn1)NC(=O)c1nc(N)n[nH]1` (stereo not drawn) | none | none | none |
| `CC[C@@H]1/C=C(/C)C[C@H](C)C[C@H](OC)[C@H]2O[C@@](O)(C(=O)C(=O)N3CCCC[C@@H]3C(=O)O[C@H](C(C)=C[C@@H]3CC[C@H](Cl)[C@H](OC)C3)[C@H](C)[C@@H](O)CC1=O)[C@H](C)C[C@H]2OC` | none | none | none |
| `CC(C)C1(CCNCc2cccc3c2OCO3)CCOC(C)(C)C1` (stereo not drawn) | hit | none | none |
| `O=C(c1ccc(C2CCCNC2)cc1)N1CCN(C2CCOCC2)CC1` (stereo not drawn) | none | none | none |
| `O=C(CNC(Cn1cccn1)c1ccccc1)Nc1cnccn1` (stereo not drawn) | none | none | none |
| `O=c1cc(CN2CCOCC2)occ1OCCCCCSc1ccnc2cc(C(F)(F)F)ccc12` | none | none | none |
| `Brc1cccc(-c2nc(-c3[nH]ncc3NCc3ccncc3)n[nH]2)c1` | none | none | none |
| `CCc1nnc2c3ccccc3nc(Nc3cccc(C)c3)n12` | none | none | none |
| `Clc1ccc(-c2nc3cc(NCc4cccs4)ccc3o2)cc1` | none | none | none |
| `O=C1CC(C(=O)N2Cc3cnn(CCO)c3C2)c2ccccc21` (stereo not drawn) | none | none | none |
| `Nc1ccc(C(=O)CC(=O)Nc2ccc(C(=O)O)cc2)cc1` | none | none | none |
| `Cc1cccc(C)c1Nc1nc2ccccc2c2nncn12` | none | none | none |
| `CCN(CC)C(=O)[C@@H]1C[C@H](N)CN1C(=O)c1cc2c(Cl)cccc2n1C` | none | none | none |
| `CCOC(=O)N1c2ccc(C(F)(F)F)cc2[C@@H](N(Cc2cc(C(F)(F)F)cc(C(F)(F)F)c2)C(=O)OC)C[C@H]1CC` | none | none | none |
| `O=C(c1ccc2sccc2c1)N1CCN(Cc2ccco2)C(CCO)C1` (stereo not drawn) | none | none | none |
| `Cn1nc(NC(=O)C(F)(F)F)c2ncc(-c3ccc(Cl)cc3)nc21` | none | none | none |
| `CCC(CC)NC(CC)Cn1ccnc1` (stereo not drawn) | none | none | none |
| `O=C(CCCn1cnnn1)N1CCC2(CC1)c1ccccc1CC2O` (stereo not drawn) | none | none | none |
| `O=C(NCc1cnn(Cc2ccccc2)c1)c1ccc(C2CCCNC2)cc1` (stereo not drawn) | none | none | none |
| `CCOC(=O)c1cnc2ccc(C(=O)OC)cc2c1NCCCO` | none | none | none |
| `Cc1cc(C)n(CC(C)NC2CCN(C(=O)Nc3ccccc3)CC2)n1` (stereo not drawn) | none | none | none |
| `CC(C)CCC(C)N[C@H](CO)Cc1ccccc1` (stereo partly drawn) | none | none | none |
| `COC(=O)c1ccc(Oc2nc(NC(C)C)nc(SC)n2)cc1` | none | none | none |
| `Nc1ccc(Oc2ccc(N)c([N+](=O)[O-])c2)cc1[N+](=O)[O-]` | none | hit | none |
| `Cc1nn(CCO)c(C)c1CN(C)Cc1cnn(-c2ccccc2)c1` | none | none | none |
| `CCN(CC)c1nc(NC)nc(-n2cnc(SC)n2)n1` | none | - | none |
| `O=C(O)C1CNCCN(C(=O)Cc2noc3ccccc23)C1` (stereo not drawn) | none | none | none |
| `NC(=O)c1nnsc1-c1ccc(-c2snnc2C(N)=O)cc1` | none | none | none |
| `COc1ccc2cc3c(N)nn(C(=O)c4ccco4)c3nc2c1` | none | none | none |
| `CCCCCCCNCc1ccc2c(c1)n(C)c(=O)n2C` | none | - | none |
| `Cc1ccc2nc(-c3c[nH]c4ccccc34)c(NC3CCCC3)n2c1` | none | none | none |
| `CCn1c(N)nc2cc(C(=O)NCc3nnc4n3CCCCC4)cnc21` | none | none | none |
| `Cc1ccc(Nc2nc(C)c3nc(C)n(-c4ccc(C)cc4)c3n2)cc1` | none | none | none |
| `O=C(C1CNCCO1)N1CCC(c2cc(Cc3ccccc3)n[nH]2)CC1` (stereo not drawn) | none | none | none |
| `OC[C@H]1O[C@@H](Oc2cc(O)cc(C=Cc3ccc(O)cc3)c2)[C@H](O)[C@@H](O)[C@H]1O` | none | none | none |
| `CCN1Cc2ccccc2CC1C(=O)N1C[C@H]2C[C@H](O)[C@@H](O)C[C@H]2C1` (stereo partly drawn) | none | none | none |
| `CC(Nc1cccc2ccccc12)C(=O)NN=Cc1ccc([N+](=O)[O-])cc1` (stereo not drawn) | none | none | none |
| `O=C(c1ccncc1)N1CCC(N2CCOCC(CO)C2)CC1` (stereo not drawn) | none | none | none |
| `C[C@](Cc1c[nH]c2ccccc12)(NC(=O)OC1C2CC3CC(C2)CC1C3)C(=O)NC[C@H](NC(=O)CCC(=O)O)c1ccccc1` (stereo partly drawn) | none | none | none |

The first 5 entries again:

SMILES	T1	T2	T3
Cc1ccc(NC(=O)Cn2nnc(C(=O)Nc3ccc(F)c(Cl)c3)c2N)c(C)c1	none	none	none
CC(C)CCn1c(CNC(=O)C2CC3(CCNCC3)CN2)nc2cccnc21 (stereo not drawn)	none	none	none
Cc1c(NC(=S)NCCO)c(=O)n(-c2ccccc2)n1C	none	none	none
Cc1ccc(CNCCc2c[nH]c3ccccc23)cc1	none	none	none
O=C(C1CC=CC1)N1CCN(C2Cc3ccccc3C2)CC(O)C1 (stereo not drawn)	none	none	none